Measured values from publication PMC12700557.
Changes are numbered by the printed parent chain. These are yes or no findings as the source states them, for the method shown. Binding seen in cells or lysates may run through a third protein. Some results given as binding are weak or reduced against the parent protein; the word gives no strength. For part of these data: Tags and fused reporters may be left off the sequences shown. Each block holds one substance with its values, some of them ahead of it.

Amino acid sequences for entries named in this document (tags omitted). A change or cut given only in a name is not applied to a line headed by its entry. Chains listed by the source or under a name are the forms on record and can include a tag or linker.
UniProt O43791: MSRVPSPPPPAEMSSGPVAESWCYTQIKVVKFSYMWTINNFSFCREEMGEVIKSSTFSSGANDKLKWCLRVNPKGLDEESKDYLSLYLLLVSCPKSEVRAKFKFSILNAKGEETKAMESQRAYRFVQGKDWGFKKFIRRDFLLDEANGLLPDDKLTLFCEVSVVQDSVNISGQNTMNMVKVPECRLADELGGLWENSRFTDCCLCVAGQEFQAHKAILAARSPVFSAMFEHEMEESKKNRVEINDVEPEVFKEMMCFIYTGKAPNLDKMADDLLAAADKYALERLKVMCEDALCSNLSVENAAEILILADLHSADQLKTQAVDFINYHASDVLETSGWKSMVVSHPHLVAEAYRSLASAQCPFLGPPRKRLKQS
UniProt Q86WV6: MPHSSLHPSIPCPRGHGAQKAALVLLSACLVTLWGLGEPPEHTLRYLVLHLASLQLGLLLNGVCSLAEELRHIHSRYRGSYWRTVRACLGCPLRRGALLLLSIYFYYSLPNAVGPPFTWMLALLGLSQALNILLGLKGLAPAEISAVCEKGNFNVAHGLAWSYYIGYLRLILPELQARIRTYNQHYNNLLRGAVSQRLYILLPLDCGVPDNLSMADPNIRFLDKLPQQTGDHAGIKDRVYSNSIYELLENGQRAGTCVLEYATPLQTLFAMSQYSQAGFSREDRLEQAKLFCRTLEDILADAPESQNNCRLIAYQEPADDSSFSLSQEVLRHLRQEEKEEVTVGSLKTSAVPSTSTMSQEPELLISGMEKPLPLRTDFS
Flag-STING-4A (Q86WV6, form named): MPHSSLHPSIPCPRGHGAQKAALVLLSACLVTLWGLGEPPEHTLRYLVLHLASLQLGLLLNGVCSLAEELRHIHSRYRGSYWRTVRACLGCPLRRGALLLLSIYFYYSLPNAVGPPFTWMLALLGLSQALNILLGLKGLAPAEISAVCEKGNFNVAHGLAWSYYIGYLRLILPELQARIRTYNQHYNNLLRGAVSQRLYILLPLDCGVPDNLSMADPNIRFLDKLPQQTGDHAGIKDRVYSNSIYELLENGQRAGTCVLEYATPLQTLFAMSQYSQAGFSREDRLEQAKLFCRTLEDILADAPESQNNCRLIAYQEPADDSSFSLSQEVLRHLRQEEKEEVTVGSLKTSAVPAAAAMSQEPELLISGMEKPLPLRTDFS

How the values were obtained:
[1] = biological target: GST-SPOP (UniProt O43791); assay: pull-down; GST pull-down from 293T cells transfected with the indicated constructs; 10 μM MG132 for 12 h; without 6lc
[2] = biological target: HA-SPOP (UniProt O43791); assay: co-IP; HA-IP from lysates of 293T cells transfected with the indicated constructs; 10 μM MG132 overnight before collection; washed 5 times with NETN buffer
[3] = biological target: Flag-STING co-expressed with Myc-CK1γ1 (phosphorylated in the PSTST motif) (human) (UniProt Q86WV6); assay: co-IP; Flag-IP from 293T cells transfected with Flag-STING, SPOP and Myc-tagged casein kinases; 20 nM Baf-A1 overnight
[4] = biological target: T1, Flag-mSTING-2A (mouse) (UniProt Q3TBT3); assay: co-IP; Flag-IP from lysates of B16 cells stably expressing the indicated molecules by lentivirus infection; 10 μM MG132 overnight
T1 sequence: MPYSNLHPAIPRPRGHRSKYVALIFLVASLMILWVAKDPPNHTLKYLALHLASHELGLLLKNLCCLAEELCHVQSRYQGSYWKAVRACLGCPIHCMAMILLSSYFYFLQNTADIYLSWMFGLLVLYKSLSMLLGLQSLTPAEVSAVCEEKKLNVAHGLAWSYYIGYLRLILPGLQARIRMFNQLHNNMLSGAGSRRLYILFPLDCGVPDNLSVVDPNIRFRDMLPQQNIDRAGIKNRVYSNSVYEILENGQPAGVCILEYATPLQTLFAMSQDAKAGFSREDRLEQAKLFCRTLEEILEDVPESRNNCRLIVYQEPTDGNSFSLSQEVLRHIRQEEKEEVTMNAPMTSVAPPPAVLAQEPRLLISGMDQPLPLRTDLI

[5] = biological target: T2, Flag-mSTING-WT (mouse) (UniProt Q3TBT3); assay: as above
T2 sequence: T1 sequence with A354S, A357S

- binding [1]: binds
- binding [2]: binds
Substance: Flag-STING-WT (from UniProt Q86WV6 1-379)

- binding [3]: binds
Substance: SPOP (tagged construct not named for this experiment) (from UniProt O43791 1-374)

- binding [2]: binds
Substance: Flag-STING-4A (from UniProt Q86WV6 1-379)

- binding [4]: binds
- binding [5]: binds
Substance: SPOP in B16 cells (Figure 3N) (from UniProt O43791 1-374)
